Data reported in the supplement of paper PMC10849652.
The list shows a part of the results.

Protein sequences, listed by entry. Tags and fused reporters are not part of them. Lines headed by an entry give the natural chain unless they say otherwise; changes in a name come on top.
UniProt Q9NQX3: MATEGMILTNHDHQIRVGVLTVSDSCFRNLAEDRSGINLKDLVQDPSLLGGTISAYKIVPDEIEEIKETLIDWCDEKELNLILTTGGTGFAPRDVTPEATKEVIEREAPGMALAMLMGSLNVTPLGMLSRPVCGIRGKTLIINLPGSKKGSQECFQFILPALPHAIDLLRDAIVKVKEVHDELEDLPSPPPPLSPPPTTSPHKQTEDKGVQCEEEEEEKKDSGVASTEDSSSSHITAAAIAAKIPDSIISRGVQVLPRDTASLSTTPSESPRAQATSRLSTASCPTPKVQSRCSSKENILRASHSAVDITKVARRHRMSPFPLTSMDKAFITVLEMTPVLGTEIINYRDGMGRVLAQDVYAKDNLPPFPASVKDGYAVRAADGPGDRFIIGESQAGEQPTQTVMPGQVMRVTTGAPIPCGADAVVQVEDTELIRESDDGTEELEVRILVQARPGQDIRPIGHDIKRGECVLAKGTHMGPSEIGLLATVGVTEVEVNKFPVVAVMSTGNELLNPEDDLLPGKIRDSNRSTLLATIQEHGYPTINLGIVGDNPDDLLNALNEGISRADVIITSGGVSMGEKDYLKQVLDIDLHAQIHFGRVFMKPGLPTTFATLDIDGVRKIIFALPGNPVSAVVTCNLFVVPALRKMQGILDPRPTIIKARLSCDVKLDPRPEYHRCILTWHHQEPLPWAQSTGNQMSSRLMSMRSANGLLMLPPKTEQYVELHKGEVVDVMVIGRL
UniProt Q9BRX5: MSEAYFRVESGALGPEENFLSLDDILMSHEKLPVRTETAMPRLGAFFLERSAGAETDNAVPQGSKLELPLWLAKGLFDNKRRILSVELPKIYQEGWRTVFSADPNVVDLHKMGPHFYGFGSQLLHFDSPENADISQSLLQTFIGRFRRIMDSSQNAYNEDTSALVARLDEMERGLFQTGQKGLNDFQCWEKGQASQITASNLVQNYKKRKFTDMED
UniProt P16278: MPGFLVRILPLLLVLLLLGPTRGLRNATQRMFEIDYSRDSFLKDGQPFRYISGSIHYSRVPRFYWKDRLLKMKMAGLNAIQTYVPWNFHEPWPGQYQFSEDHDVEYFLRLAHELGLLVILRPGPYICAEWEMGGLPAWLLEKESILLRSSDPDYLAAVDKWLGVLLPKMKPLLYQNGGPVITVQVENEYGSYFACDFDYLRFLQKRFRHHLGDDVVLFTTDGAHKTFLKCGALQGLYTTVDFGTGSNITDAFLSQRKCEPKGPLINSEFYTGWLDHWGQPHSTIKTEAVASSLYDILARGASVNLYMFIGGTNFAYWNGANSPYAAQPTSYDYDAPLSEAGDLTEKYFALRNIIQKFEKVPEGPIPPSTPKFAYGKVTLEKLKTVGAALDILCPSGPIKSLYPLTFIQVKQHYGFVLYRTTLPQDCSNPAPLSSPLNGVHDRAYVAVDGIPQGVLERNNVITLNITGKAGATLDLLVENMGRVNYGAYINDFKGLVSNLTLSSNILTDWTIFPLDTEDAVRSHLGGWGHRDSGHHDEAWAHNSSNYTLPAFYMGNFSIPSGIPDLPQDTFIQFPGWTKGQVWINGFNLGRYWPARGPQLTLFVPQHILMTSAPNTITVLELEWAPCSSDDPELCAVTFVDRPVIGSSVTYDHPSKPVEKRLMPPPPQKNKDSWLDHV
UniProt Q53GS7: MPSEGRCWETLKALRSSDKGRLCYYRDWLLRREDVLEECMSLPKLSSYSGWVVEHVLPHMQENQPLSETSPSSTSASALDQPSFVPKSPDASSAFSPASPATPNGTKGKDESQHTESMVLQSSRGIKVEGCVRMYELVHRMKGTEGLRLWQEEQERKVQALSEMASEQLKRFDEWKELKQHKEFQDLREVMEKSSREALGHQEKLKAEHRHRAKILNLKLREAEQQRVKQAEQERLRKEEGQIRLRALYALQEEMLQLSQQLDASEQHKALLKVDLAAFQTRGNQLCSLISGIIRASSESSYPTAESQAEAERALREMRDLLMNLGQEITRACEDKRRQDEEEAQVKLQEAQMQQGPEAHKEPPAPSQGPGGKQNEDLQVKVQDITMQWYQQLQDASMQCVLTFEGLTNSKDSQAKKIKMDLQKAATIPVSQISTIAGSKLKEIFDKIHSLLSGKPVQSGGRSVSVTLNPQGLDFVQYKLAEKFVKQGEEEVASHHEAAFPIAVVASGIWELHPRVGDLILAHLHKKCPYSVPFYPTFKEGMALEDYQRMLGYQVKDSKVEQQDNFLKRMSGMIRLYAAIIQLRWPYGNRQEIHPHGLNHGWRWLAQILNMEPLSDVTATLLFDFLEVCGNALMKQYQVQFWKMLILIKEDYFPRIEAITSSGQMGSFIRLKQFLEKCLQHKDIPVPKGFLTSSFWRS
UniProt P62879, whole entry, looked up: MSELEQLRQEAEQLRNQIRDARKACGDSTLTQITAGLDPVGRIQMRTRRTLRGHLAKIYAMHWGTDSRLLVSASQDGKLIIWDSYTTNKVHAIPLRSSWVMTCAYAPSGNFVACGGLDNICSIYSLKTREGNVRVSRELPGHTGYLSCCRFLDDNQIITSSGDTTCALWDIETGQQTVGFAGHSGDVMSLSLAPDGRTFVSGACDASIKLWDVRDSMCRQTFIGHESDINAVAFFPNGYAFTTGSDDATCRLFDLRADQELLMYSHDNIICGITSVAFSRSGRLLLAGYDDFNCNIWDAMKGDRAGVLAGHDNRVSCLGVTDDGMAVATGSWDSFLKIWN
UniProt Q9UKD1: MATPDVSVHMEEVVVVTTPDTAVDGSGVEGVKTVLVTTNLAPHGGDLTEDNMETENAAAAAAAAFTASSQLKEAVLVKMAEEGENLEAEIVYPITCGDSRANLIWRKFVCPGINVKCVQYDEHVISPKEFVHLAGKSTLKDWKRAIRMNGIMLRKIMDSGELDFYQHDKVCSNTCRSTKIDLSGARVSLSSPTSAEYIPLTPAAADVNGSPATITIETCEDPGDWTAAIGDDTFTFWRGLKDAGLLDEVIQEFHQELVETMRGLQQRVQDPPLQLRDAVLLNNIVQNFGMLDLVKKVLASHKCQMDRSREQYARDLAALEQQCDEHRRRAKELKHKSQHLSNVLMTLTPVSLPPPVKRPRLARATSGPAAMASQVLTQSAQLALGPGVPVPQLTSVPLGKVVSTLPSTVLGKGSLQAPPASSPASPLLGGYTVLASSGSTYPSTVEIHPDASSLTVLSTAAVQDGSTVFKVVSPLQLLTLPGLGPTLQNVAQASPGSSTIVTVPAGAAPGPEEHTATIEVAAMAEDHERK
UniProt Q13098: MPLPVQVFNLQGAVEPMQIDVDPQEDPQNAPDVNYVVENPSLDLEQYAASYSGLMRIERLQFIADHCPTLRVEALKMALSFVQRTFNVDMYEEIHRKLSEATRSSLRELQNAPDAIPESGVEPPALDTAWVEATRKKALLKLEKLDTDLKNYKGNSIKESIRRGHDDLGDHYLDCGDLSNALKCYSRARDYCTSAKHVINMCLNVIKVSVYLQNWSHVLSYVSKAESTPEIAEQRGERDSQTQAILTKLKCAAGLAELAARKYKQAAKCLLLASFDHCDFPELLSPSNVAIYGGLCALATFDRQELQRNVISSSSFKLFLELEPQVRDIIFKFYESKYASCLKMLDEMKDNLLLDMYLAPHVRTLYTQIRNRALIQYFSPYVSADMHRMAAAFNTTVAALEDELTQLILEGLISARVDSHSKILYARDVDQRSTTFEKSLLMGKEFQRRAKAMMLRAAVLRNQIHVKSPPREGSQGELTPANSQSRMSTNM
UniProt Q9Y5P6: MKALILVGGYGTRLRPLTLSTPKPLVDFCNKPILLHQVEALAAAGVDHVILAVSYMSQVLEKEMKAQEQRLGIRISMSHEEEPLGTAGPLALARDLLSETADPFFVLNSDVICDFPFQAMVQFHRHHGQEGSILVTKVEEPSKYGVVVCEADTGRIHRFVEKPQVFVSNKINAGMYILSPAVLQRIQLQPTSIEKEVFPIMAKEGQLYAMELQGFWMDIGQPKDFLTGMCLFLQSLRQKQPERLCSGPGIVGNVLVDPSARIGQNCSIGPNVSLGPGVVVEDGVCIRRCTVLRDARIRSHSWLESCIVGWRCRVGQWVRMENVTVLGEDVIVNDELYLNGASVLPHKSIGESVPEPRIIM
UniProt Q8IW92: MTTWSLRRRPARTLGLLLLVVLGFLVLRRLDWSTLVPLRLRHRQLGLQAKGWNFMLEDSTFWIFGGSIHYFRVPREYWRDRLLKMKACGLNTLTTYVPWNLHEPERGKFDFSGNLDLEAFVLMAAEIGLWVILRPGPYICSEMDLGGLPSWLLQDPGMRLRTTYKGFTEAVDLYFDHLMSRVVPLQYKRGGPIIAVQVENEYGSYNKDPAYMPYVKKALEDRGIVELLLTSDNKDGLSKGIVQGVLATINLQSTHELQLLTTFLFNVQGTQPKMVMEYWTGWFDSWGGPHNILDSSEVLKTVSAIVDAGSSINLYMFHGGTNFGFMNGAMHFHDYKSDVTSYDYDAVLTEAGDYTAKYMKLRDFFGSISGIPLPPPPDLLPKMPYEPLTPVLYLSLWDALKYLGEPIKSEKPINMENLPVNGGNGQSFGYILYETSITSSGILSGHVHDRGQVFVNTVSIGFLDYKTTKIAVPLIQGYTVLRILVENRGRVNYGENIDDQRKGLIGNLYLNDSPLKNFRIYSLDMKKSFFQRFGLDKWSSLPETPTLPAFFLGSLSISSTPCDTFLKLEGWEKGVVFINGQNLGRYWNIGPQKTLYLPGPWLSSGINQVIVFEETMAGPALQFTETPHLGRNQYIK
UniProt P49915: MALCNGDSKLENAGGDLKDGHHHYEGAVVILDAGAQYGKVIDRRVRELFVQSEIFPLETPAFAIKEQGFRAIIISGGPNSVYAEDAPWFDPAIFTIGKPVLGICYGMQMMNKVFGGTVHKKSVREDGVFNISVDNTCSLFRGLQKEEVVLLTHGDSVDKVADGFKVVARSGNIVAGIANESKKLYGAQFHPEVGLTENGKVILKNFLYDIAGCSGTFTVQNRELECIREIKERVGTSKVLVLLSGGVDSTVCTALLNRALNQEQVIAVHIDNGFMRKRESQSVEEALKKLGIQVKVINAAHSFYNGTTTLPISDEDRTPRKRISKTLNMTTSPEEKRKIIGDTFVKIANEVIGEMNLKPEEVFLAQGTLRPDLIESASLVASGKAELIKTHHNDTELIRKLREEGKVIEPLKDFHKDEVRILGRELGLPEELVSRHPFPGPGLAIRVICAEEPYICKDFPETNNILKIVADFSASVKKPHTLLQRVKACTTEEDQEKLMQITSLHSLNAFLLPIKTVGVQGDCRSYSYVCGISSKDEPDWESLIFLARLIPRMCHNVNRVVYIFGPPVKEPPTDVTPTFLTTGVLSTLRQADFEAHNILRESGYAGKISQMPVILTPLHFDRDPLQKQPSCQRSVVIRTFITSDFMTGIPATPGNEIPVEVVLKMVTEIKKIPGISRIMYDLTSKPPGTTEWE
UniProt Q8TBA6: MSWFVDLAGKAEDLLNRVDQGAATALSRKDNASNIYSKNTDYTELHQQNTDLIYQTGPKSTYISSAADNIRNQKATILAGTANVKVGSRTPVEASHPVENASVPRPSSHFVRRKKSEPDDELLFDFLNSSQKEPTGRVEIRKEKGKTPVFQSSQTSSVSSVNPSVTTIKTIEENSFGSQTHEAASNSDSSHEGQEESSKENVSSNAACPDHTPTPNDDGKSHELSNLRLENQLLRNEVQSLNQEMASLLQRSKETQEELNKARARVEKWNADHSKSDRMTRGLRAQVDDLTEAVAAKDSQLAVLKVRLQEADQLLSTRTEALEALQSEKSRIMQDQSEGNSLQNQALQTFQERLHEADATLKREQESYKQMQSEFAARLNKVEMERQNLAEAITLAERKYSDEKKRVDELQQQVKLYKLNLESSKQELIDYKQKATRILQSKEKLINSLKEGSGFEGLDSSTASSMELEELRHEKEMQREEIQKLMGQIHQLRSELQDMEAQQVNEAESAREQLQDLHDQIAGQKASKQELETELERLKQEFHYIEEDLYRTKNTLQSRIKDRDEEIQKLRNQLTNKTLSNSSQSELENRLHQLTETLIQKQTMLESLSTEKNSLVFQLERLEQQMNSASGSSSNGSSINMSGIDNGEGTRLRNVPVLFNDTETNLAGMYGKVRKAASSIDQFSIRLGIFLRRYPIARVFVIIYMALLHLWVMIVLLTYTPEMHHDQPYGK
UniProt Q86UL3: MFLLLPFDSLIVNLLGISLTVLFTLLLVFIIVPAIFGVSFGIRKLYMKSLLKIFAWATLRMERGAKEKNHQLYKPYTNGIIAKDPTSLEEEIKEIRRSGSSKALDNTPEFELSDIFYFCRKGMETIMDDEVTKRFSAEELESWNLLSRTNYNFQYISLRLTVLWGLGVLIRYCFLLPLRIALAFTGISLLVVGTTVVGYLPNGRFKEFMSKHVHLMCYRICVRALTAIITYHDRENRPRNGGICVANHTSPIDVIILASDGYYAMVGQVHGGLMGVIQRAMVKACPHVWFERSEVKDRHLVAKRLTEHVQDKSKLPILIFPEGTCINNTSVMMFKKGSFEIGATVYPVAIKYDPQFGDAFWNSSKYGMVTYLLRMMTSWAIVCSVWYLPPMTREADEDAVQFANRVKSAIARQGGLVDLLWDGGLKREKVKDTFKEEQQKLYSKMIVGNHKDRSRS

Assays:
Assay in all cases: log2 fold change, soluble protein after heating vs DMSO (PISA); higher = thermal stabilisation; K562 lysate, 10 uM; active = over 0.2 and 3.5 SD of the protein, either way, in both replicates (recomputed)
nilotinib = compound: Cc1cn(-c2cc(NC(=O)c3ccc(C)c(Nc4nccc(-c5cccnc5)n4)c3)cc(C(F)(F)F)c2)cn1 [nilotinib]
Procedure, shortened: (§1)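 Thermal stability, expressed as log-two fold change relative to solvent controls, is given from duplicates. Crude K562 extract in PBS pH 7.4 with 1 mM MgCl2, at 1 mg/mL protein, was treated with 10 μM compound for 30 min and heated in aliquots for 3 min across 48°C-58°C. After pooling, adjustment to 0.5% NP-40 at 4°C and centrifugation at 21,000xg for 90 min, supernatant protein was measured by TMTpro 16plex LC-MS/MS with channel sums equalised.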

[1] = compound: Cc1nc(Nc2n[nH]c3c2CN(C(=O)N[C@H](CN(C)C)c2ccccc2)C3(C)C)c2sccc2n1
Procedure, shortened: as §1

dasatinib = compound: Cc1nc(Nc2ncc(C(=O)Nc3c(C)cccc3Cl)s2)cc(N2CCN(CCO)CC2)n1 [dasatinib]
Procedure, shortened: as §1

[2] = compound: Cc1ncc(-c2ccnc(Nc3ccc(S(C)(=O)=O)cc3)n2)n1C(C)C
Procedure, shortened: as §1

[3] = compound: Cn1cc(-c2ccc3c(c2)CCN3C(=O)Cc2cccc(C(F)(F)F)c2)c2c(N)ncnc21
Procedure, shortened: as §1

quisinostat = compound: Cn1cc(CNCC2CCN(c3ncc(C(=O)NO)cn3)CC2)c2ccccc21 [quisinostat]
Procedure, shortened: as §1

tipifarnib = compound: Cn1cncc1[C@@](N)(c1ccc(Cl)cc1)c1ccc2c(c1)c(-c1cccc(Cl)c1)cc(=O)n2C [tipifarnib]
Procedure, shortened: as §1

[4] = compound: NC(=O)Nc1cc(-c2cccc(F)c2)sc1C(=O)N[C@H]1CCCNC1
Procedure, shortened: as §1

[5] = compound: NC(=O)c1cnc(N[C@@H]2CCCC[C@@H]2N)nc1Nc1cccc(-n2nccn2)c1
Procedure, shortened: as §1

[6] = compound: NC1(c2ccc(-c3nc4ccn5c(=O)[nH]nc5c4cc3-c3ccccc3)cc2)CCC1
Procedure, shortened: as §1

Measured: log2 fold change

GPHN isoform 2 (UniProt Q9NQX3)
inactive: nilotinib -0.005 | [1] 0.015 | dasatinib 0.01 | [2] -0.007 | [3] -0.012 | quisinostat -0.022 | tipifarnib 0.008 | [4] 0.006 | [5] -0.02 | [6] 0.01

GLRX2 (UniProt Q9NS18)
inactive: nilotinib 0.051 | [1] -0.032 | dasatinib 0.031 | [2] 0.012 | [3] 0.038 | quisinostat -0.001 | tipifarnib -0.045 | [4] -0.014 | [5] -0.008 | [6] 0.009

GPI (UniProt P06744)
inactive: nilotinib 0 | [1] -0.011 | dasatinib 0.015 | [2] -0.044 | [3] 0.019 | quisinostat 0.034 | tipifarnib 0.014 | [4] -0.026 | [5] -0.007 | [6] 0.029

GPN1 isoform 5 (UniProt Q9HCN4)
inactive: nilotinib -0.006 | [1] -0.005 | dasatinib 0.002 | [2] 0.021 | [3] -0.055 | quisinostat -0.027 | tipifarnib 0.037 | [4] 0 | [5] -0.015 | [6] -0.005

GINS3 (UniProt Q9BRX5)
inactive: nilotinib 0.023 | [1] 0.009 | dasatinib -0.029 | [2] -0.083 | [3] 0.032 | quisinostat 0.027 | tipifarnib 0.029 | [4] 0.007 | [5] 0 | [6] 0.081

GLB1 (UniProt P16278)
inactive: nilotinib -0.006 | [1] 0.03 | dasatinib -0.026 | [2] 0.023 | [3] 0.003 | quisinostat 0.03 | tipifarnib 0.017 | [4] -0.016 | [5] -0.011 | [6] -0.022

GOLGA3 (UniProt Q08378)
inactive: nilotinib 0 | [1] -0.016 | dasatinib -0.02 | [2] 0.002 | [3] 0.008 | quisinostat -0.019 | tipifarnib -0.021 | [4] -0.012 | [5] -0.002 | [6] -0.005

GNPAT (UniProt O15228)
inactive: nilotinib 0.003 | [1] 0.037 | dasatinib -0.059 | [2] 0.021 | [3] 0.01 | quisinostat 0.122 | tipifarnib -0.08 | [4] 0.011 | [5] 0.013 | [6] -0.062

GLE1 (UniProt Q53GS7)
inactive: nilotinib 0.073 | [1] -0.052 | dasatinib 0.007 | [2] -0.075 | [3] -0.039 | quisinostat -0.007 | tipifarnib -0.054 | [4] 0.153 | [5] 0.085 | [6] -0.098

GNL1 (UniProt P36915)
inactive: nilotinib -0.001 | [1] 0.017 | dasatinib -0.028 | [2] -0.021 | [3] 0 | quisinostat 0.025 | tipifarnib 0.027 | [4] 0.034 | [5] 0.001 | [6] -0.031

GNB1 (UniProt P62873)
inactive: nilotinib 0.075 | [1] 0.057 | dasatinib -0.078 | [2] 0.098 | [3] -0.029 | quisinostat 0.107 | tipifarnib 0.019 | [4] -0.137 | [5] -0.027 | [6] -0.018

GNAI2 (UniProt P04899)
inactive: nilotinib 0.041 | [1] -0.04 | dasatinib -0.004 | [2] 0.047 | [3] -0.006 | quisinostat -0.042 | tipifarnib 0.018 | [4] 0.045 | [5] 0.007 | [6] -0.006

Random excerpt: 2 entries already listed
GNAI2 (UniProt P04899)
inactive: nilotinib 0.041 | [1] -0.04 | dasatinib -0.004 | [2] 0.047 | [3] -0.006 | quisinostat -0.042 | tipifarnib 0.018 | [4] 0.045 | [5] 0.007 | [6] -0.006

GNL1 (UniProt P36915)
inactive: nilotinib -0.001 | [1] 0.017 | dasatinib -0.028 | [2] -0.021 | [3] 0 | quisinostat 0.025 | tipifarnib 0.027 | [4] 0.034 | [5] 0.001 | [6] -0.031

Further entries follow.

GNB3 (UniProt P16520)
inactive: nilotinib -0.095 | [1] 0.058 | dasatinib -0.155 | [2] -0.017 | [3] -0.079 | quisinostat -0.144 | tipifarnib -0.075 | [4] 0.082 | [5] 0.054 | [6] -0.103

GNB2 (UniProt P62879)
inactive: nilotinib 0.011 | [1] 0.01 | dasatinib 0.001 | [2] 0.015 | [3] 0.001 | quisinostat 0.001 | tipifarnib -0.031 | [4] 0.012 | [5] -0.009 | [6] 0.023

GPS1 (UniProt A8K070)
inactive: nilotinib 0.109 | [1] 0.06 | dasatinib 0.044 | [2] 0.105 | [3] 0.009 | quisinostat 0.07 | tipifarnib -0.042 | [4] -0.005 | [5] -0.008 | [6] -0.002

GLYR1 (UniProt Q49A26)
inactive: nilotinib 0.082 | [1] 0.02 | dasatinib -0.053 | [2] 0.053 | [3] -0.048 | quisinostat -0.119 | tipifarnib -0.12 | [4] -0.049 | [5] -0.012 | [6] 0.023

GMPR (UniProt P36959)
inactive: nilotinib -0.012 | [1] 0.012 | dasatinib -0.031 | [2] 0 | [3] 0.021 | quisinostat 0.063 | tipifarnib 0.019 | [4] 0.016 | [5] 0.009 | [6] 0.017

GMEB2 (UniProt Q9UKD1)
inactive: nilotinib 0.023 | [1] -0.076 | dasatinib -0.104 | [2] -0.074 | [3] 0.006 | quisinostat 0.029 | tipifarnib 0.006 | [4] 0.026 | [5] -0.06 | [6] -0.096

GPS1 isoform 6 (UniProt Q13098)
inactive: nilotinib 0.015 | [1] 0.006 | dasatinib 0.02 | [2] 0.027 | [3] -0.003 | quisinostat -0.035 | tipifarnib 0.008 | [4] 0 | [5] 0.014 | [6] -0.033

GPD1 (UniProt P21695)
inactive: nilotinib 0.205 | [1] -0.107 | dasatinib -0.157 | [2] -0.095 | [3] -0.083 | quisinostat -0.382 | tipifarnib -0.049 | [4] 0.108 | [5] 0.066 | [6] -0.146

GOLGA2 (UniProt Q08379)
inactive: nilotinib 0.003 | [1] -0.037 | dasatinib -0.063 | [2] -0.003 | [3] 0.01 | quisinostat -0.01 | tipifarnib -0.013 | [4] -0.02 | [5] 0.039 | [6] -0.011

GPCPD1 (UniProt Q9NPB8)
inactive: nilotinib 0.07 | [1] -0.005 | dasatinib 0.036 | [2] -0.004 | [3] 0.039 | quisinostat -0.019 | tipifarnib 0.038 | [4] 0.082 | [5] -0.047 | [6] -0.056

GMPPB isoform 2 (UniProt Q9Y5P6)
inactive: nilotinib -0.017 | [1] 0.023 | dasatinib -0.066 | [2] -0.011 | [3] 0.003 | quisinostat -0.025 | tipifarnib 0.006 | [4] 0.014 | [5] -0.021 | [6] 0.015

GPD1L (UniProt Q8N335)
inactive: nilotinib 0.016 | [1] 0.005 | dasatinib -0.035 | [2] 0.051 | [3] 0.02 | quisinostat 0 | tipifarnib 0.031 | [4] 0.041 | [5] 0.051 | [6] 0.038

GLB1L2 (UniProt Q8IW92)
inactive: nilotinib 0.063 | [1] 0.035 | dasatinib -0.017 | [2] 0.006 | [3] 0.006 | quisinostat -0.015 | tipifarnib 0.049 | [4] -0.032 | [5] -0.045 | [6] 0.028

GMPS (UniProt P49915)
inactive: nilotinib -0.006 | [1] -0.019 | dasatinib -0.016 | [2] 0 | [3] 0 | quisinostat 0.041 | tipifarnib -0.008 | [4] 0.001 | [5] 0.001 | [6] 0.009

GOLGA5 (UniProt Q8TBA6)
inactive: nilotinib 0.014 | [1] 0.021 | dasatinib 0.026 | [2] 0.023 | [3] -0.002 | quisinostat 0.024 | tipifarnib 0.025 | [4] -0.008 | [5] 0.024 | [6] -0.057

GGNBP2 (UniProt Q9H3C7)
inactive: nilotinib -0.044 | [1] -0.063 | dasatinib -0.044 | [2] 0.035 | [3] 0.004 | quisinostat -0.037 | tipifarnib 0.094 | [4] 0.024 | [5] -0.008 | [6] 0.047

GPAT4 (UniProt Q86UL3)
inactive: nilotinib 0.028 | [1] 0.048 | dasatinib 0.004 | [2] 0.004 | [3] -0.015 | quisinostat -0.012 | tipifarnib 0.019 | [4] -0.02 | [5] 0.014 | [6] -0.016

GPATCH8 (UniProt Q9UKJ3)
inactive: nilotinib -0.016 | [1] -0.005 | dasatinib -0.021 | [2] -0.009 | [3] -0.014 | quisinostat 0.047 | tipifarnib -0.094 | [4] -0.026 | [5] 0.012 | [6] 0.046
